Measurements: PubChem BioAssay AID901 (National Center for Advancing Translational Sciences (NCATS), 2007)
This is one part of the list. These are further read-outs of the screen, such as a control signal, another cell line or another target. No call is given for them. Most of these compounds were active or inconclusive in the main read-out, so they are no random draw. Potencies come from curve fits of mixed quality, noted in brackets.

Assay: qHTS Assay for Identifying the Cell-Membrane Permeable IMPase Inhibitors
Conditions: CHO-M1 cells, IP1 accumulation, HTRF TR-FRET ratio; measured here: donor channel 620 nm AC50
For O=C1CC(c2nnc(Cc3ccc(F)cc3Cl)o2)CN1c1ccccc1 (configuration not stated), the AC50 was 5.62 µM [falling, single point]. In the case of CCCCCCCCCCCCCCCCCCOC[C@@H](COP(=O)([O-])OCC[N+](C)(C)C)OC, the AC50 is reported as 0.158 µM [falling, full curve, poor fit]. In the case of CCOC(=O)/C(C#N)=C\C=C1C=CN(C)C=C1, the AC50 is reported as 2.51 µM [falling, full curve, poor fit]. In the case of CCc1cc2c(N[C@@H](C)C(=O)O)ncnc2s1, the AC50 is reported as 31.6 µM [rising, single point]. In the case of COc1cc(/C=C2/C(=O)NN(c3cccc(C)c3)C2=O)ccc1OC(=O)c1ccco1, the AC50 is reported as 0.112 µM [rising, full curve, poor fit]. For COc1cc(C)c(Cl)cc1S(=O)(=O)n1cnc(C)c1, the AC50 was 31.6 µM [rising, single point]. In the case of Cc1ccc(-c2nnc(-c3ccccc3)o2)cc1, the AC50 is reported as 0.0631 µM [rising, full curve, poor fit]. For O=C(Cn1cc(C(=O)c2ccco2)c2ccccc21)NC1CCCC1, the AC50 was 0.158 µM [falling, full curve, poor fit]. With c1ccc2c(c1)OCC(c1csc3ncnc(N4CCCCC4)c13)O2 (configuration not stated) the AC50 was 0.00316 µM [rising, full curve, poor fit]. For O=C(Nc1ccccc1Cl)c1sc2cccc(Cl)c2c1Cl, the AC50 was 28.2 µM [rising, single point]. For O=C(N/N=C/C1CCCCC1)c1cc(Cl)ccc1O, the AC50 was 10 µM [falling, single point]. In the case of Cc1csc(NC(=O)c2sc3nc(-c4cccs4)ccc3c2N)n1, the AC50 is reported as 15.8 µM [rising, partial curve]. For COc1ccc(N2CCN(CCCNC(=O)Nc3ccccc3)CC2)cc1, the AC50 was 2.82 µM [falling, single point]. In the case of Cn1c(CN2CCN(c3ccc(Cl)cc3)CC2)nc2ccccc21, the AC50 is reported as 0.0126 µM [rising, full curve, poor fit]. For CS(=O)(=O)c1sc2nc(-c3cccs3)cc(-c3ccccc3)c2c1N, the AC50 was 15.8 µM [rising, partial curve]. For CCc1ccc2nc(N3CCN(C)CC3)c(C#N)cc2c1, the AC50 was 0.0501 µM [rising, partial curve, poor fit]. In the case of CN1CCN(NC(=O)c2ccc(Cl)c([N+](=O)[O-])c2)CC1, the AC50 is reported as 20 µM [falling, partial curve, poor fit]. For Cc1cc(C)c(S(=O)(=O)N2CCC(C(=O)NCc3ccco3)CC2)c(C)c1, the AC50 was 15.8 µM [falling, single point]. In the case of CC(C)(C)NC(=O)c1ccc(COCC(F)(F)F)o1, the AC50 is reported as 3.16 µM [falling, single point]. For Cc1c(NC(=O)OCCNC(=O)COc2ccc(Cl)cc2Cl)sc(=S)n1C, the AC50 was 12.6 µM [rising, single point]. For Cc1ccccc1Cn1ccc(NC(=O)c2cc3nc(-c4ccco4)cc(C(F)(F)F)n3n2)n1, the AC50 was 0.0251 µM [rising, full curve, poor fit]. For C=CCOC(=O)C1=C(C)NC(SCC(=O)NC(=O)OCC)=C(C#N)C1c1cccnc1 (configuration not stated), the AC50 was 0.0251 µM [rising, full curve, poor fit]. In the case of COc1ccc(NS(=O)(=O)c2cccc(C(=O)O)c2)cc1, the AC50 is reported as 0.01 µM [rising, full curve]. With CC(=O)Nc1c(O)nc(SCC(=O)Nc2nnc(CC(C)C)s2)[nH]c1=O the AC50 was 31.6 µM [falling, single point]. In the case of COC(=O)c1c(NC(=O)c2ccc(S(=O)(=O)N3CCOCC3)cc2)sc2c1CCN(C)C2, the AC50 is reported as 0.251 µM [falling, single point]. For CCC(CC)C(=O)Nc1cccc(C(=O)N2CCCC2)c1, the AC50 was 12.6 µM [rising, single point]. For O=[N+]([O-])c1cc(-c2ccc(/C=N/c3nc4ccccn4c3-c3ccco3)o2)ccc1Cl, the AC50 was 2.51 µM [falling, full curve, poor fit]. With CC(=O)OC1c2c(ccc3ccc(=O)oc23)OC(C)(C)C1OC(=O)CC(C)C (configuration not stated) the AC50 was 0.2 µM [rising, full curve, poor fit]. With CCc1ccccc1NC1=NCC(=O)N1Cc1ccc2c(c1)OCO2 the AC50 was 2.51 µM [falling, partial curve]. For Cc1ccc(NC(=O)c2ccc3c(c2)N(CC(=O)N2CCCCC2)C(=O)C(C)(C)O3)cc1, the AC50 was 31.6 µM [falling, single point]. With COC(=O)c1ccc(CSCC(=O)Nc2cc(OC)cc(OC)c2)o1 the AC50 was 0.01 µM [rising, partial curve, poor fit]. In the case of COC(=O)C1=C(C)NC(=O)CC1c1ccc(F)c(Br)c1 (configuration not stated), the AC50 is reported as 1 µM [falling, full curve]. For Cn1c(=O)c2c(-c3ccccc3)n(-n3cnnc3)cc2n(C)c1=O, the AC50 was 5.01 µM [falling, single point]. For O=C(NCCc1ccccc1)c1noc2c1CCCCC2, the AC50 was 0.00316 µM [rising, full curve, poor fit]. With CCN(CC)CCCN1C(=O)C(O)=C(C(=O)c2cc3ccccc3o2)C1c1ccccn1 (configuration not stated) the AC50 was 15.8 µM [rising, single point]. In the case of Cc1cc(Cl)ccc1Oc1nc(-c2ccccc2)ncc1S(C)(=O)=O, the AC50 is reported as 15.8 µM [rising, single point]. In the case of O=S(=O)(c1cccs1)n1cnc2ccccc21, the AC50 is reported as 0.01 µM [rising, full curve, poor fit]. With COc1cc(-c2c(C#N)c(N)nc(SCc3ccncc3)c2C#N)cc(OC)c1OC the AC50 was 3.98 µM [falling, full curve]. In the case of Cc1cccc(N2C(=O)SC(N(C)c3ccccc3)C2=O)c1 (configuration not stated), the AC50 is reported as 0.1 µM [falling, full curve]. For O=C(CC1C(=O)NCCN1C(=O)c1ccc(F)cc1)OCc1ccccc1 (configuration not stated), the AC50 was 5.01 µM [falling, single point]. For Fc1cccc(Nc2cc(-n3cccn3)ncn2)c1, the AC50 was 1 µM [falling, full curve]. With CCP(=O)(CC)C(C)(C)CP(=O)(c1ccccc1)c1ccccc1 the AC50 was 0.501 µM [rising, full curve, poor fit].
